Source: the supplement of paper PMC4604168 (melanoma cell lines)
Some of the results follow. Single values are uncertain, as repeats are few or missing.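 Cells were imaged in 1,536-well plates, and nuclei stained with an antibody against cleaved PARP were counted against all DNA-stained nuclei to give the apoptosis fraction. Screening doses were chosen to leave most cells alive, and resting and induced cleaved-PARP levels differ strongly between cell lines.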

Legend:
Experiment in all cases: cleaved PARP positive nuclei fraction relative to DMSO control; melanoma cells; higher = more apoptosis
Conditions in all cases: library dose: low library concentration; 72 h
WM115 = tested on: WM115
WM1716 = tested on: WM1716
WM1745 = tested on: WM1745
WM3526 = tested on: WM3526
WM3619 = tested on: WM3619
WM451Lu = tested on: WM451Lu

Row | Structure (SMILES) | cleaved PARP positive nuclei fraction (WM115) | cleaved PARP positive nuclei fraction (WM1716) | cleaved PARP positive nuclei fraction (WM1745) | cleaved PARP positive nuclei fraction (WM3526) | cleaved PARP positive nuclei fraction (WM3619) | cleaved PARP positive nuclei fraction (WM451Lu)
1 | COc1cc2c(Oc3ccc4[nH]c(C)cc4c3F)ncnc2cc1OCCCN1CCCC1 [cediranib] + CCN(CC)CCCCNc1ncc2cc(-c3cc(OC)cc(OC)c3)c(NC(=O)NC(C)(C)C)nc2n1 [PD173074] (first compound 0.4 µM, partner dose 0.1 µM) | 68% | 98.7% | 106% | 63.7% | 85.8% | 251%
2 | COc1cc2ncnc(Nc3ccc(Oc4ccccc4)cc3)c2cc1OC + O=C1NC(=O)/C(=C/c2ccc(-c3ccc(F)cc3O)o2)S1 [AS252424] (first compound 2 µM, partner dose 1 µM) | 121% | 79.4% | 126% | 70.9% | 87.9% | 102%
3 | O=C(O)c1ccc(-c2c[nH]c3ncc(-c4ccccc4)cc23)cc1C1CCCC1 + O=c1cc(-c2cccc3c2Sc2ccccc2S3)oc(N2CCOCC2)c1 [KU55933] (first compound 0.16 µM, partner dose 1 µM) | 97.9% | 55.6% | 102% | 36.8% | 57.7% | 103%
4 | CN(NC(=O)CC(=O)NN(C)C(=S)c1ccccc1)C(=S)c1ccccc1 + CCN(CC)CCCCNc1ncc2cc(-c3cc(OC)cc(OC)c3)c(NC(=O)NC(C)(C)C)nc2n1 [PD173074] (first compound 0.006 µM, partner dose 0.1 µM) | 229% | 233% | 295% | 219% | 269% | 28.3%
5 | O=S(=O)(c1ccccc1)N(CC(F)(F)F)c1ccc(C(O)(C(F)(F)F)C(F)(F)F)cc1 + CCCCCCCCCCCC1=C(O)C(=O)C=C(O)C1=O [Embelin] (first compound 1.4 µM, partner dose 1.2 µM) | 105% | 74.6% | 111% | 86.1% | 84.2% | 245%
6 | O=C(O)c1ccc(-c2c[nH]c3ncc(-c4ccccc4)cc23)cc1C1CCCC1 + COc1ccc(COc2ccc(Cc3cnc(N)nc3N)cc2OC)cc1 [GW2580] (first compound 0.16 µM, partner dose 1 µM) | 134% | 46.3% | 111% | 145% | 89.1% | 48.9%
7 | CN(NC(=O)CC(=O)NN(C)C(=S)c1ccccc1)C(=S)c1ccccc1 + O=c1cc(-c2cccc3c2Sc2ccccc2S3)oc(N2CCOCC2)c1 [KU55933] (first compound 0.006 µM, partner dose 1 µM) | 313% | 114% | 169% | 69.3% | 118% | 54.5%
8 | Cc1cc([N+](=O)[O-])ccc1NS(=O)(=O)c1cc(Cl)ccc1Cl + O=c1cc(-c2cccc3c2Sc2ccccc2S3)oc(N2CCOCC2)c1 [KU55933] (first compound 1 µM, partner dose 1 µM) | 131% | 23.4% | 120% | 73.7% | 84.4% | 58%
9 | CN(C)S(=O)(=O)c1ccc2c(c1)/C(=C/c1cc3c([nH]1)CCCC3)C(=O)N2 + NCC(=O)Nc1ccc(-n2nc(C(F)(F)F)cc2-c2ccc3c(ccc4ccccc43)c2)cc1 [OSU03012] (first compound 0.4 µM, partner dose 1 µM) | 79.2% | 79.7% | 93.4% | 112% | 98.7% | 184%
10 | COc1cc2c(Oc3ccc4[nH]c(C)cc4c3F)ncnc2cc1OCCCN1CCCC1 [cediranib] + c1cc(-c2cnn3cc(-c4ccc(OCCN5CCCCC5)cc4)cnc23)ccn1 [Dorsomorphin] (first compound 0.4 µM, partner dose 0.4 µM) | 71.7% | 68.3% | 132% | 227% | 58.3% | 74.6%
11 | CCc1ccc(CCOc2ccc(CC3SC(=O)NC3=O)cc2)nc1 (stereo not given) [pioglitazone] + Cn1cc(/C=C2\C(=O)Nc3cccnc32)c2ccccc21 [GW441756] (first compound 2 µM, partner dose 0.4 µM) | 46.6% | 47.5% | 104% | 100% | 78% | 23.8%
12 | CN(C)S(=O)(=O)c1ccc2c(c1)/C(=C/c1cc3c([nH]1)CCCC3)C(=O)N2 + COc1ccc(-c2ccc3c(N4CCOCC4)nc(N4C[C@@H](C)O[C@@H](C)C4)nc3n2)cc1CO [KU0063794] (first compound 0.4 µM, partner dose 0.02 µM) | 101% | 149% | 112% | 72.8% | 99.1% | 55.3%
13 | Oc1cc(-c2nc(-c3ccccc3)[nH]c2-c2ccncc2)ccc1Cl + c1cc(-c2cnn3cc(-c4ccc(OCCN5CCCCC5)cc4)cnc23)ccn1 [Dorsomorphin] (first compound 0.2 µM, partner dose 0.4 µM) | 393% | 66.7% | 113% | 116% | 83.5% | 63.4%
14 | COc1cc2ncnc(Nc3ccc(Oc4ccccc4)cc3)c2cc1OC + COc1cc(N2CCC(N3CCN(C)CC3)CC2)ccc1Nc1ncc(Cl)c(Nc2ccccc2S(=O)(=O)C(C)C)n1 [NVP-TAE684] (first compound 2 µM, partner dose 0.08 µM) | 108% | 57.3% | 131% | 122% | 97.3% | 110%
15 | COc1cc2ncnc(Nc3ccc(Oc4ccccc4)cc3)c2cc1OC + CC(C)CCN1c2nc(Nc3cc(F)c(O)c(F)c3)ncc2N(C)C(=O)C1C [BID1870] (first compound 2 µM, partner dose 0.2 µM) | 93.8% | 75.2% | 106% | 64.5% | 79% | 104%
16 | N#Cc1c(O)c2c(-c3ccc(-c4ccccc4O)cc3)csc2[nH]c1=O + CC(C)CCN1c2nc(Nc3cc(F)c(O)c(F)c3)ncc2N(C)C(=O)C1C [BID1870] (first compound 2 µM, partner dose 0.2 µM) | 103% | 55.4% | 104% | 214% | 72.3% | 118%
17 | CN(C)S(=O)(=O)c1ccc2c(c1)/C(=C/c1cc3c([nH]1)CCCC3)C(=O)N2 + Oc1cc(-c2nc(-c3ccccc3)[nH]c2-c2ccncc2)ccc1Cl [L779450] (first compound 0.4 µM, partner dose 0.2 µM) | 148% | 47.6% | 122% | 39.4% | 94.2% | 184%
18 | NCC(=O)Nc1ccc(-n2nc(C(F)(F)F)cc2-c2ccc3c(ccc4ccccc43)c2)cc1 + O=C(O)C(=O)Nc1sc2c(c1C(=O)O)CCNC2 [TCS401] (first compound 1 µM, partner dose 1.66667 µM) | 68% | 38.2% | 111% | 120% | 86.5% | 175%
19 | COc1ccc(-c2ccc3c(N4CCOCC4)nc(N4C[C@@H](C)O[C@@H](C)C4)nc3n2)cc1CO + CCN(CC)CCCCNc1ncc2cc(-c3cc(OC)cc(OC)c3)c(NC(=O)NC(C)(C)C)nc2n1 [PD173074] (first compound 0.02 µM, partner dose 0.1 µM) | 47.3% | 53.7% | 104% | 77.5% | 105% | 116%
20 | CCc1ccc(CCOc2ccc(CC3SC(=O)NC3=O)cc2)nc1 (stereo not given) [pioglitazone] + N#Cc1c(O)c2c(-c3ccc(-c4ccccc4O)cc3)csc2[nH]c1=O [A769662] (first compound 2 µM, partner dose 2 µM) | 227% | 35.2% | 107% | 167% | 95.6% | 66%
21 | COc1ccc2c(c1)CCC1C2CCC2(C)C(NCCCCCCN3C(=O)C=CC3=O)CCC12 (stereo not given) + O=S(=O)(c1ccccc1)N(CC(F)(F)F)c1ccc(C(O)(C(F)(F)F)C(F)(F)F)cc1 [T0901317] (first compound 0.4 µM, partner dose 1.4 µM) | 50.1% | 187% | 598% | 34.2% | 136% | 74.6%
22 | O=C1NC(=O)/C(=C/c2ccc(-c3ccc(F)cc3O)o2)S1 + Cn1cc(/C=C2\C(=O)Nc3cccnc32)c2ccccc21 [GW441756] (first compound 1 µM, partner dose 0.4 µM) | 65.7% | 147% | 97.2% | 42.3% | 98.5% | 326%
23 | c1cc(-c2cnn3cc(-c4ccc(OCCN5CCCCC5)cc4)cnc23)ccn1 [Dorsomorphin] + CCCCCCCCCCCC1=C(O)C(=O)C=C(O)C1=O [Embelin] (first compound 0.4 µM, partner dose 1.2 µM) | 136% | 35.7% | 111% | 60.7% | 73.6% | 124%
24 | Cn1cc(/C=C2\C(=O)Nc3cccnc32)c2ccccc21 + O=c1cc(-c2cccc3c2Sc2ccccc2S3)oc(N2CCOCC2)c1 [KU55933] (first compound 0.4 µM, partner dose 1 µM) | 65.6% | 56.3% | 103% | 32.6% | 88.2% | 548%
25 | CN(NC(=O)CC(=O)NN(C)C(=S)c1ccccc1)C(=S)c1ccccc1 + O=C(O)C(=O)Nc1sc2c(c1C(=O)O)CCNC2 [TCS401] (first compound 0.006 µM, partner dose 1.66667 µM) | 31.6% | 102% | 156% | 57.6% | 145% | 28%

Given in CSV form: part of the list above
Row,Structure (SMILES),cleaved PARP positive nuclei fraction (WM115),cleaved PARP positive nuclei fraction (WM1716),cleaved PARP positive nuclei fraction (WM1745),cleaved PARP positive nuclei fraction (WM3526),cleaved PARP positive nuclei fraction (WM3619),cleaved PARP positive nuclei fraction (WM451Lu)
1,"COc1cc2c(Oc3ccc4[nH]c(C)cc4c3F)ncnc2cc1OCCCN1CCCC1 [cediranib] + CCN(CC)CCCCNc1ncc2cc(-c3cc(OC)cc(OC)c3)c(NC(=O)NC(C)(C)C)nc2n1 [PD173074] (first compound 0.4 µM, partner dose 0.1 µM)",68%,98.7%,106%,63.7%,85.8%,251%
2,"COc1cc2ncnc(Nc3ccc(Oc4ccccc4)cc3)c2cc1OC + O=C1NC(=O)/C(=C/c2ccc(-c3ccc(F)cc3O)o2)S1 [AS252424] (first compound 2 µM, partner dose 1 µM)",121%,79.4%,126%,70.9%,87.9%,102%
3,"O=C(O)c1ccc(-c2c[nH]c3ncc(-c4ccccc4)cc23)cc1C1CCCC1 + O=c1cc(-c2cccc3c2Sc2ccccc2S3)oc(N2CCOCC2)c1 [KU55933] (first compound 0.16 µM, partner dose 1 µM)",97.9%,55.6%,102%,36.8%,57.7%,103%
4,"CN(NC(=O)CC(=O)NN(C)C(=S)c1ccccc1)C(=S)c1ccccc1 + CCN(CC)CCCCNc1ncc2cc(-c3cc(OC)cc(OC)c3)c(NC(=O)NC(C)(C)C)nc2n1 [PD173074] (first compound 0.006 µM, partner dose 0.1 µM)",229%,233%,295%,219%,269%,28.3%
5,"O=S(=O)(c1ccccc1)N(CC(F)(F)F)c1ccc(C(O)(C(F)(F)F)C(F)(F)F)cc1 + CCCCCCCCCCCC1=C(O)C(=O)C=C(O)C1=O [Embelin] (first compound 1.4 µM, partner dose 1.2 µM)",105%,74.6%,111%,86.1%,84.2%,245%
6,"O=C(O)c1ccc(-c2c[nH]c3ncc(-c4ccccc4)cc23)cc1C1CCCC1 + COc1ccc(COc2ccc(Cc3cnc(N)nc3N)cc2OC)cc1 [GW2580] (first compound 0.16 µM, partner dose 1 µM)",134%,46.3%,111%,145%,89.1%,48.9%
7,"CN(NC(=O)CC(=O)NN(C)C(=S)c1ccccc1)C(=S)c1ccccc1 + O=c1cc(-c2cccc3c2Sc2ccccc2S3)oc(N2CCOCC2)c1 [KU55933] (first compound 0.006 µM, partner dose 1 µM)",313%,114%,169%,69.3%,118%,54.5%
